In patent publication US5656591A, “Antimicrobial agents and method for treating products therewith” (Morinaga Milk Industry Co., Ltd., priority 1992, dated 1997):
Not every detail of the peptide structures is certain; ends, links or a residue may be inferred. For some of these results: The name of at least one read-out is uncertain. No end group written: not given here.

Key:
[1] = system: Staphylococcus aureus (JCM-2151); assay: Viability assay (survival rate) in cow's milk medium; type: cell-based
Experimental: The colonies grown on the culture medium were scraped by a platinum loop and cultivated in 1% peptone (by Difco Company) culture medium for several hours at 37° C., and the resultant microbial culture at logarithmic phase was used as the preculture in a serial concentration of 3×10^8 /ml.
A quantity of the resultant solutions of the samples were selectively mixed with a quantity of the basal medium, thereby test media for the respective tests were prepared in the combinations and eventual concentrations as specified in the respective tests.
Utilizing the samples (5), (7), (8), (9), (10), (14), (15), (17), (18) and (19), test media were prepared in the same manner as in the preparation of the test media containing sample (3) and the like, except that the aqueous solution (in the cases of samples (5) and (7), aqueous suspensions) were not dealt with sterilization filters.
To 2 ml aliquots of test media prepared in (3-1) (supra), […] aliquots of the preculture of Staphylococcus aureus prepared in (1) (2. Method, supra) were added, then incubated at 37° C. for 1 hour, 200 μl aliquots of the resultant cultures were taken out and diluted with 1% peptone solution in a series of 10^n respectively, 110 μl aliquots of the resultant dilution series were spread onto plates of standard agar culture medium, and after incubation at 37° C. for 24 hours the number of colonies grown on the plates were counted (Test. Colony Count).
Control coloney counts 1 were determined in the same manner as in the determination of the test coloney counts, except that […] aliquots of the preculture of Staphylococcus aureus prepared in (1) (2. Method, supra) were added to 2 ml aliquots of the respective control media 1 prepared in (3-2) (supra). Furthermore, control coloney counts 2 were determined in the same manner as in the determination of the test coloney counts, except that […] aliquots of the preculture of Staphylococcus aureus prepared in (1) (supra) were added to 2 ml aliquots of the respective control media 1 prepared in (3-2) (supra).
Survival rate 1=(Test Colony Count/Control Colony Count 1)×100
Survival rate 2=(Control Colony Count 2/Control Colony Count 1)×100
(Note: In the tables shown hereinafter, vulues of survival rate 2 are indicated in the row where the concentration of antimicrobial peptide or lactoferrin hydrolysate is 0.)

[2] = system: Staphylococcus aureus JCM2151; assay: Test for antimicrobial activity (turbidity): growth inhibiting concentration of antibiotics; type: cell-based; details: Test 23
Experimental: (§1) Precultures of test microorganisms to be used in the tests described hereunder were prepared in such a manner that: from the frozen preservation of dispersions of test microorganisms, a loop of the respective strains of the microorganisms were taken out and spread onto TRI PETIT CASE SOYA AGAR MEDIA (by BBL Company), and incubated at 37° C. for 16 hours; the colonies grown on the culture media were scraped by a platinum loop and cultivated in 2.1% Mueller-Hington Broth (by Difco Company) respectively for several hours at 37° C. The resultant microbial cultures at logarithmic phase in 3×10^8 /ml of microbial concentration were used as the precultures.
(§2) The test media to be used in the respective tests were prepared in such a manner that: aqueous solutions in a predetermined concentration of the lactoferrin hydrolysates or the lactoferrin-derived antimicrobial peptides of (1) and (2) in Preparation of Samples (supra), as well as the samples of antibiotics of (3) (supra) were respectively sterilized with filters (by Advantec Company); then a quantity of the resultant solutions of respective samples were selectively added to a quantity of basal medium (Mueller-Hington Broth) prepared in the eventual concentration of 2.1%, thereby combinations of the samples and their concentrations in the respective test media were adjusted as specified in the respective tests. […]

[3] = system: methicillin-resistant Staphylococcus aureus (wild type); assay: Viability assay in Mueller-Hington Broth on antibiotics-resistant microorganism; type: cell-based
Experimental: as §1
The test media to be used in the respective tests were prepared in such a manner that: aqueous solutions in a predetermined concentration of the lactoferrin hydrolysates or the lactoferrin-derived antimicrobial peptides of (1) and (2) in Preparation of Samples (supra), as well as the samples of antibiotics of (3) (supra) were respectively sterilized with filters (by Advantec Company); then a quantity of the resultant solutions of respective samples were selectively added to a quantity of basal medium (Mueller-Hington Broth) prepared in the eventual concentration of 2.1%, thereby combinations of the samples and their concentrations in the respective test media were adjusted as specified in the respective tests.
Survival rate was examined in such a manner that: 20 μl aliquots of the respective precultures prepared in (1) immediately above were added to 2 ml aliquots of the respective test media prepared in paragraph (2) immediately above; the resultant media were incubated at 37° C. for an hour; 200 μl aliquots of the respective resultant culture broths were serially diluted in 10° with a 1% aqueous solution of peptone; 110 μl aliquots of the resultant diluted solutions were spread onto broth agar plates; after incubation at 37° C. for 24 hours the number of colonys (test colony count) grown on the plates were counted. On the other hand control colony count was enumerated in the same manner as in the enumeration of test colony count except that 20 μl aliquots of the respective precultures were added to 21 aliquots of 2.1% Mueller-Hington broth; then survival rate was calculated in accordance with following formula:
Survival Rate=(test colony count/control colony count)×100
Components in the test and control media and eventual concentrations thereof were adjusted by properly combining 0 μg, 10 μg, 100 μg and 1000 μg/ml of lactoferrin-derived antimicrobial peptides of (2) (in Preparation of Samples, supra), and 0 μg, 10 μg, and 50 μg/ml of antibiotics of (3) (supra), then viability assay was made on an antibiotics-resistant microorganisms (methicillin-resistant Staphylococcus aureus (wild type)).

[4] = system: Staphylocoecus aureus (JCM-2151); assay: Viability assay in Mueller-Hington Broth; type: cell-based, Staphylococcus aureus; details: Test 25: peptide 10 μg/ml
Experimental: as §1, §2

“KTRRWQWRMKK [antimicrobial peptide (Seq. ID No. 27)]” gave a survival rate ([1]; Test 13: peptide 0.5, chitosan 0 mg/ml) of 100, a survival rate ([1]; Test 13: peptide 0.5, chitosan 0.004 mg/ml) of 94 and a survival rate ([1]; Test 13: peptide 0.5, chitosan 0.02 mg/ml) of 41. For the same compound, the survival rate ([1]; Test 13: peptide 0.5, chitosan 0.1 mg/ml) was 1.4, the survival rate ([1]; Test 13: peptide 1, chitosan 0 mg/ml) was 85 and the survival rate ([1]; Test 13: peptide 1, chitosan 0.004 mg/ml) was 8.5. It also gave a survival rate ([1]; Test 13: peptide 1, chitosan 0.02 mg/ml) of 2.1, a survival rate ([1]; Test 13: peptide 1, chitosan 0.1 mg/ml) of 0.2 and a survival rate ([1]; Test 13: peptide 2, chitosan 0 mg/ml) of 21. The survival rate ([1]; Test 13: peptide 2, chitosan 0.004 mg/ml) was 2.2, the survival rate ([1]; Test 13: peptide 2, chitosan 0.02 mg/ml) was 0.4 and the survival rate ([1]; Test 13: peptide 2, chitosan 0.1 mg/ml) was 0.05. For the same compound, the survival rate ([1]; Test 14: peptide 0.5, L-cysteine 0 mg/ml) was 78, the survival rate ([1]; Test 14: peptide 0.5, L-cysteine 1 mg/ml) was 12 and the survival rate ([1]; Test 14: peptide 0.5, L-cysteine 5 mg/ml) was 2.1. It also gave a survival rate ([1]; Test 14: peptide 0.5, L-cysteine 10 mg/ml) of 0.06, a survival rate ([1]; Test 14: peptide 1, L-cysteine 0 mg/ml) of 25 and a survival rate ([1]; Test 14: peptide 1, L-cysteine 1 mg/ml) of 2.3. It also gave a survival rate ([1]; Test 14: peptide 1, L-cysteine 5 mg/ml) of 0.09, a survival rate ([1]; Test 14: peptide 1, L-cysteine 10 mg/ml) of 0.02 and a survival rate ([1]; Test 14: peptide 2, L-cysteine 0 mg/ml) of 15. For the same compound, the survival rate ([1]; Test 14: peptide 2, L-cysteine 1 mg/ml) was 0.7, the survival rate ([1]; Test 14: peptide 2, L-cysteine 5 mg/ml) was 0.03 and the survival rate ([1]; Test 14: peptide 2, L-cysteine 10 mg/ml) was less than 0.004. It also gave a survival rate ([1]; Test 20: peptide 1, 1-monolauroyl-rac-glycerol 0, bovine lactoferrin 0 mg/ml) of 76%, a survival rate ([1]; Test 20: peptide 1, 1-monolauroyl-rac-glycerol 0, bovine lactoferrin 1 mg/ml) of 63% and a survival rate ([1]; Test 20: peptide 1, 1-monolauroyl-rac-glycerol 0.5, bovine lactoferrin 0 mg/ml) of 2.1%. The survival rate ([1]; Test 20: peptide 1, 1-monolauroyl-rac-glycerol 0.5, bovine lactoferrin 1 mg/ml) was 0.06%, the survival rate ([1]; Test 21: peptide 1, 1-monolauroyl-rac-glycerol 0, chitosan 0 mg/ml) was 97% and the survival rate ([1]; Test 21: peptide 1, 1-monolauroyl-rac-glycerol 0, chitosan 0.01 mg/ml) was 1.4%. For the same compound, the survival rate ([1]; Test 21: peptide 1, 1-monolauroyl-rac-glycerol 0.5, chitosan 0 mg/ml) was 4.6%, the survival rate ([1]; Test 21: peptide 1, 1-monolauroyl-rac-glycerol 0.5, chitosan 0.01 mg/ml) was 0.02% and the “antimicrobial activity when no antibiotics were included (in words)” value [2] was “no antimicrobial activity was observed”. The “effect on the antimicrobial activity of the antibiotics (in words)” value [2] was “potentiated the antimicrobial activity of the antibiotics”, the “antimicrobial activity when antibiotics were not included (in words)” value ([3]; Test 24) was “no antimicrobial activity was observed” and the “effect on the antimicrobial activity of the antibiotics (in words)” value ([3]; Test 24) was “potentiated the antimicrobial activity of the antibiotics”. The survival rate ([3]; Test 24: peptide 10, minomycin 0 μg/ml) was 69%, the survival rate ([3]; Test 24: peptide 10, minomycin 10 μg/ml) was 21% and the survival rate ([3]; Test 24: peptide 10, minomycin 50 μg/ml) was 4.8%. It also gave a survival rate ([3]; Test 24: peptide 100, minomycin 0 μg/ml) of 60%, a survival rate ([3]; Test 24: peptide 100, minomycin 10 μg/ml) of 21% and a survival rate ([3]; Test 24: peptide 100, minomycin 50 μg/ml) of 2.4%. It also gave a survival rate ([3]; Test 24: peptide 1000, minomycin 0 μg/ml) of 3.6%, a survival rate ([3]; Test 24: peptide 1000, minomycin 50 μg/ml) of less than 0.002% and a survival rate ([4]; no antibiotic (control)) of 60%. It also gave a survival rate ([4]; streptomycin 1 μg/ml) of 0.2%.

Compound `O=C(O)CC(O)(CC(=O)O)C(=O)O` [citric acid, Citric Acid] has a survival rate ([1]; Test 11: lactoferrin hydrolysate 0, citric acid 0.1 mg/ml) of 148, a survival rate ([1]; Test 11: lactoferrin hydrolysate 0, citric acid 1 mg/ml) of 140 and a survival rate ([1]; Test 11: lactoferrin hydrolysate 0, citric acid 5 mg/ml) of 130.
